The values that follow come from patent US20230365700A1.

The chains behind the UniProt entries cited, without tags or fusion partners. Where a name states a change or a piece, a line headed by the entry shows the natural chain unless it says otherwise. A line that says so, or that is headed by a name, gives the form on record, which may keep a tag or linker.
cynomolgus monkey CD40-his protein (Acro biosystems, Cat #CD0-C52H6) (G7PG38, form named): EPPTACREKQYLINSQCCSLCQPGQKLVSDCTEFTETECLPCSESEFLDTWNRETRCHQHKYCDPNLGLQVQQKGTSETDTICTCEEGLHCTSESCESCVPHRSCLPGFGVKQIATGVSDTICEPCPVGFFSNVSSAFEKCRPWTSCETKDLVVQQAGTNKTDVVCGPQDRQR

Positions count from the first letter of the chain named. Results are given in words; binding and its absence hold for the method and conditions named. Some binding calls cover weakened binding; strength is not graded here.

The labels stand for the following.
B1: humanized antibody huC1H1-V1 (antibody, human IgG2, kappa, V domains shown)
VH: EVQLVESGGGLVKPGGSLRLSCAASGFTFSNYGISWVRQAPGKGLEWVASISSGGDNTYYPDNVKGRFTISRDNAKNSLYLQMNSLRAEDTAVYYCARAGEKAMDYWGQGTLVTVSS
VL: EIVLTQSPATLSLSPGERATLSCRASQTINNNLHWYQQKPGQAPRLLIKYASQSISGIPARFSGSGSGTDFTLTISSLEPEDFAVYFCQQFSSWPLTFGGGTKVEIKR
B2: humanized antibody huC1H1-V2 (antibody, human IgG2, kappa, V domains shown)
VH: B1 VH with A49S
VL: B1 VL
B3: mouse anti-CD40 monoclonal antibody C1H1 (antibody, V domains shown)
VH: EVKLVESGGGLVKPGASLKLSCAASGFTFSNYGISWVRQTSDKRLEWVASISSGGDNTYYPDNVKGRFTISRENAKNTLYLQMSSLKSEDTALYYCARAGEKAMDYWGQGTSVTVSS
VL: DIVLTQSPVTLSVTPGDSVSLSCRASQTINNNLHWYQQKSHESPRLLIKYASQSISGIPSRFSGSGSGTDFTLSINSVETEDFGIYFCQQFSSWPLTFGAGTKLELK
B4: chimeric C1H1 antibody (antibody, human IgG1, kappa, V domains shown)
VH: B3 VH
VL: DIVLTQSPVTLSVTPGDSVSLSCRASQTINNNLHWYQQKSHESPRLLIKYASQSISGIPSRFSGSGSGTDFTLSINSVETEDFGIYFCQQFSSWPLTFGAGTKLELKR

This test has as its target cynomolgus monkey CD40-his protein (Acro biosystems, Cat #CD0-C52H6) (cynomolgus monkey) (UniProt G7PG38). The experiment in a line: SPR Biacore. Background: Surface plasmon resonance follows binding to a sensor surface in real time, without labels.
For B1, the binding result was “binds”. As to B2, the binding entry is on record as “binds”. Next, B3: “binds”. As for B4, the binding result is on record as “binds”.
